Measurements published in the supplement of paper PMC12067093, “Discovery and optimisation of a covalent ligand for TRIM25 and its application to targeted protein ubiquitination” (Chemical Science, 2025).
The other results are listed elsewhere or left out.

The chains behind the UniProt entries cited, without tags or fusion partners. Where a name states a change or a piece, a line headed by the entry shows the natural chain unless it says otherwise.
UniProt Q92643: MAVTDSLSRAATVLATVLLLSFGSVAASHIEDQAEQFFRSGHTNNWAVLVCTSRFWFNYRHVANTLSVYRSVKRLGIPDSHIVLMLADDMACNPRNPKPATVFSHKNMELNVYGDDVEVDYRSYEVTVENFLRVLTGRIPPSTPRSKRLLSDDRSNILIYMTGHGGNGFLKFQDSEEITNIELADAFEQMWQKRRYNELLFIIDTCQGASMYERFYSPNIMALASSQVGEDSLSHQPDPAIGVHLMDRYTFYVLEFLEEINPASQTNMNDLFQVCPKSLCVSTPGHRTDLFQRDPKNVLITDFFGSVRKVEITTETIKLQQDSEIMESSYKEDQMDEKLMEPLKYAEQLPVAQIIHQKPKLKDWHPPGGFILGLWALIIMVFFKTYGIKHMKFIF

Assays:
[1] = target: PIGK_Q92643_92_LGIPDSHIVLMLADDMACNPR (UniProt Q92643); test: probe-labelled cysteine peptide fold change vs DMSO (competition) (log2 fold change); higher = less target engagement (more negative = stronger competition); conditions: THP-1, incubation time: 4 h
[2] = target: PIGK_Q92643_92_RLGIPDSHIVLMLADDMACNPR (UniProt Q92643); test: as above; conditions: THP-1, incubation time: 4 h
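Also: competitive profiling in live THP-1 cells: cysteine peptides tagged with an iodoacetamide desthiobiotin (IA-DTB) probe, intensity after compound treatment relative to DMSO-treated cells.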

## Cc1cc(C(=O)N2CCCN(C(=O)CCl)CC2)ccc1-c1ccccc1 [compound 10]
[1]; 10 µM
  probe-labelled cysteine peptide fold change: 0.0527
[1]; 50 µM
  probe-labelled cysteine peptide fold change: -0.0492
[2]; 10 µM
  probe-labelled cysteine peptide fold change: -0.00909
[2]; 50 µM
  probe-labelled cysteine peptide fold change: 0.103
